± gives the uncertainty stated by the source. Many entries were measured with a wide error.
Experiment: self-splicing fitness, log relative to wild type (ln ratio); higher = more splicing; Tetrahymena group I intron in knt gene, E. coli kanamycin selection, DiMSum; sequences stand for … in CUCUCU…GGAGGGAAAAGUUAUCAGGCAUGCACCUGGUAGCUAGUCUUUAAACCAAUAGAUUGCAUCGGUUUAAAAGGCAAGACCGUCAAAUUGCGGGAAAGGGGUCAACAGCCGUUCAGUACCAAGUCUCAGGGGAAACUUUGAGAUGGCCUUGCAAAGGGUAUGGUAAUAAGCUGACGGACAUGGUCCUAACCACGCAGCCAAGUCCUAAGUCAACAGAUCUUCUGUUGAUAUGGAUGCAGUUCACAGACUAAAUGUCGGUCGGGGAAGAUGUAUUCUUCUCAUAAGAUAUAGUCGGACCUCUCCUUAAUGGGAGCUAGCGGAUGAAGUGAUGCAACACUGGAGCCGCUGGGAACUAAUUUGUAUGCGAAAGUAUAUUGAUUAGUUUUGGAGUACUCGUGGUCG
Method in brief: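 DiMSum derived fitness as the error-weighted combination of fold changes across replicates, kanamycin versus no kanamycin, normalised to wild type. E. coli BL21(DE3) held the library, which randomised all eight P1ex-region intron nucleotides within the knt kanamycin-resistance gene on pET-22b(+). Six replicate transformations grew overnight at 37°C or 30°C on LB agar with or without 25 μg/mL kanamycin, also containing 100 μg/mL carbenicillin, 50 μM IPTG and 0.2% rhamnose, and pooled colonies were amplicon-sequenced on an Illumina HiSeq 2500.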

Sequence	self-splicing fitness (ln) (30 °C)	self-splicing fitness (ln) (37 °C)
CAGGAGCAAUAUUACGCGCC	-4.12 ± 0.53	–
CGGUAGCAAUAUUACGGAUA	-5.56 ± 1	–
CAGGAGCAAUAUUACGACAC	-3.19 ± 1.2	–
UCGUAGCAAUAUUACGUGAC	–	-2.63 ± 0.54
CACCAGCAAUAUUACGCGCC	-2.68 ± 0.17	-2.4 ± 0.2
AGAGAGCAAUAUUACGCACA	–	-1.25 ± 0.63
CCAUAGCAAUAUUACGACCC	-4.32 ± 1	–
CAGAAGCAAUAUUACGUUAC	-5.2 ± 0.59	-2.72 ± 0.2
AGAGAGCAAUAUUACGCCCA	-1.04 ± 0.67	–
AUGAAGCAAUAUUACGAAUC	–	-2.95 ± 0.74
CCCGAGCAAUAUUACGGCGU	-2.83 ± 0.13	-1.71 ± 0.13
CGGAAGCAAUAUUACGGCGA	–	-1.32 ± 0.62
UCGAAGCAAUAUUACGGUGC	–	-2.08 ± 0.51
AGUUAGCAAUAUUACGCUGC	-4.04 ± 1	-2.91 ± 0.53
UGGAAGCAAUAUUACGGAUU	-1.49 ± 0.08	-1.68 ± 0.12
AUCGAGCAAUAUUACGGACC	–	-1.29 ± 1.2
CGCAAGCAAUAUUACGGGUG	-1.59 ± 0.062	-0.366 ± 0.08
GCGGAGCAAUAUUACGGGUG	-3.53 ± 0.54	–
CUGGAGCAAUAUUACGCAGU	-1.93 ± 0.58	–
CCCGAGCAAUAUUACGGCCU	–	-2.86 ± 0.61
GUCGAGCAAUAUUACGCAAA	–	-1.81 ± 0.53
GGGAAGCAAUAUUACGACCA	-1.75 ± 0.57	0.224 ± 0.84
CUUUAGCAAUAUUACGAUGC	–	-2.89 ± 0.53
AUAAAGCAAUAUUACGAUCC	-1.21 ± 0.2	-0.716 ± 0.22

Sequence	self-splicing fitness (ln) (30 °C)	self-splicing fitness (ln) (37 °C)
CGUGAGCAAUAUUACGUUCC	–	-3.16 ± 0.53
UGAGAGCAAUAUUACGCCGG	–	-3.26 ± 0.73
UUUCAGCAAUAUUACGGCGA	-0.344 ± 0.093	0.167 ± 0.13
GCGCAGCAAUAUUACGUCAG	-2.03 ± 0.14	-2.23 ± 0.18
UCGUAGCAAUAUUACGAUAC	-2.82 ± 0.56	-3.23 ± 0.52
UUGUAGCAAUAUUACGGUUC	-3.92 ± 0.53	-2.22 ± 0.5
ACCAAGCAAUAUUACGUCAC	-3.68 ± 0.47	-2.89 ± 0.27
CUCCAGCAAUAUUACGAGGU	-4.41 ± 0.31	-3.07 ± 0.24
GCCCAGCAAUAUUACGCCGC	-3.11 ± 0.74	-2.39 ± 1.1
AGUAAGCAAUAUUACGCCAC	–	-2.04 ± 0.77
UCGUAGCAAUAUUACGGCCC	-1.2 ± 0.61	-1.99 ± 0.52
AGGUAGCAAUAUUACGCUUG	-1.541 ± 0.015	-1.04 ± 0.034
UACGAGCAAUAUUACGCUAG	-3.21 ± 0.53	–
UAGUAGCAAUAUUACGAAAU	–	-3.45 ± 0.73
CCGGAGCAAUAUUACGACUC	–	-1.18 ± 0.79
GCGGAGCAAUAUUACGGGGU	–	-2.92 ± 0.61
AACUAGCAAUAUUACGGGUA	-0.761 ± 0.072	-0.0817 ± 0.07
AGGCAGCAAUAUUACGGCCC	-2.44 ± 0.55	-1.38 ± 0.69
UGGAAGCAAUAUUACGCACC	-2.4 ± 0.6	-0.896 ± 0.84
UUAUAGCAAUAUUACGUCGC	-3.41 ± 0.77	-2.97 ± 0.74
GUUAAGCAAUAUUACGACGG	-4.26 ± 0.51	-2.3 ± 0.52
AGUCAGCAAUAUUACGUCAC	-3.5 ± 1	-2.51 ± 0.54
UAUUAGCAAUAUUACGCUGA	-1.66 ± 0.75	-2.4 ± 0.64
GAUGAGCAAUAUUACGUGUC	–	-3.49 ± 1

Sequence	self-splicing fitness (ln) (30 °C)	self-splicing fitness (ln) (37 °C)
GUGUAGCAAUAUUACGCAAG	-2.1 ± 0.55	-2.43 ± 0.76
UCGGAGCAAUAUUACGUAAU	-3.05 ± 0.62	–
AUCUAGCAAUAUUACGUAAC	-4.54 ± 0.73	-1.13 ± 0.5
AGUGAGCAAUAUUACGUCUU	-1.07 ± 0.082	-1.31 ± 0.1
CUCUAGCAAUAUUACGUCAU	-2.83 ± 0.4	-4.18 ± 0.39
UUCUAGCAAUAUUACGUGGC	–	-2.2 ± 0.66
AGGAAGCAAUAUUACGGCAU	-1.28 ± 0.13	-0.506 ± 0.15
CUUGAGCAAUAUUACGCUUG	-3.76 ± 0.6	–
GGAAAGCAAUAUUACGCCUU	-1.07 ± 0.29	-1.29 ± 0.38
GAAUAGCAAUAUUACGCUAU	-3.64 ± 0.75	-3.51 ± 0.74
AAGGAGCAAUAUUACGUAGU	-5.31 ± 1	–
AAAGAGCAAUAUUACGAAUA	–	-1.24 ± 0.51
CGACAGCAAUAUUACGCUCU	-1.69 ± 0.11	-0.145 ± 0.11
UUAUAGCAAUAUUACGCCCG	–	-0.424 ± 0.56
GUUGAGCAAUAUUACGUCGA	-1.66 ± 0.52	-1.29 ± 0.71
GGUAAGCAAUAUUACGUCGG	-3.15 ± 0.62	-2.36 ± 0.5
ACAGAGCAAUAUUACGCACA	-4.02 ± 0.61	–
CUUCAGCAAUAUUACGGUCC	–	-1.79 ± 1.2
UACGAGCAAUAUUACGAUAU	-2.39 ± 0.26	-3.25 ± 0.37
AUUGAGCAAUAUUACGUCCC	-2.09 ± 1.4	-1.13 ± 1.2
GAUUAGCAAUAUUACGUAUC	-4.95 ± 0.51	–
GUGUAGCAAUAUUACGGUGA	-1.45 ± 0.11	-0.916 ± 0.14
GUUCAGCAAUAUUACGGGCU	-3.26 ± 0.74	–
GCGUAGCAAUAUUACGCAUG	-4.34 ± 0.52	–

Rewritten field by field: part of the list above
UCGGAGCAAUAUUACGUAAU
  self-splicing fitness (ln) (30 °C) = -3.05 ± 0.62
AUCUAGCAAUAUUACGUAAC
  self-splicing fitness (ln) (30 °C) = -4.54 ± 0.73; self-splicing fitness (ln) (37 °C) = -1.13 ± 0.5
AGUGAGCAAUAUUACGUCUU
  self-splicing fitness (ln) (30 °C) = -1.07 ± 0.082; self-splicing fitness (ln) (37 °C) = -1.31 ± 0.1

Later entries:

Sequence	self-splicing fitness (ln) (30 °C)	self-splicing fitness (ln) (37 °C)
CUGUAGCAAUAUUACGAAGA	-4.67 ± 1	–
CGUUAGCAAUAUUACGGCGG	-0.628 ± 0.1	-0.396 ± 0.12
GCGGAGCAAUAUUACGGGGG	-1.85 ± 0.59	-2.68 ± 0.53
GCGGAGCAAUAUUACGGAGC	–	-1.13 ± 1.2
GGGAAGCAAUAUUACGAUGG	-4.83 ± 0.72	-2.76 ± 0.54
GCGGAGCAAUAUUACGCCUU	-0.631 ± 1.2	–
CGAAAGCAAUAUUACGGGAC	-3.68 ± 0.73	–
CUACAGCAAUAUUACGCAUU	-5.01 ± 0.51	–
UGUGAGCAAUAUUACGGACC	–	3.4 ± 1
UUAUAGCAAUAUUACGAUAC	-3.16 ± 0.61	–
UCGUAGCAAUAUUACGGCAC	-1.93 ± 1.2	-1.2 ± 0.73
GAAUAGCAAUAUUACGGGCG	-1.16 ± 0.078	-0.509 ± 0.1
GCCUAGCAAUAUUACGAAUA	–	-1.84 ± 0.5
AUACAGCAAUAUUACGAAAC	-4.34 ± 0.72	–
UCGCAGCAAUAUUACGUAGC	-5.04 ± 1	-3.74 ± 1
GGAGAGCAAUAUUACGCGGC	-0.524 ± 0.59	–
CAUGAGCAAUAUUACGGGAU	–	-1.53 ± 0.55
UAGAAGCAAUAUUACGCUCC	-1.54 ± 0.56	-2.29 ± 1.1
CGGGAGCAAUAUUACGCUAC	-2.87 ± 1.1	-1.77 ± 0.69
CACUAGCAAUAUUACGAGCA	-3.42 ± 0.18	-0.879 ± 0.11
CUGGAGCAAUAUUACGGUCC	-2.42 ± 1.2	-1.37 ± 0.69
CAAUAGCAAUAUUACGGAUC	–	-2.92 ± 0.54
UGUCAGCAAUAUUACGCCGA	-2.04 ± 0.61	-2.43 ± 1.1
CCCAAGCAAUAUUACGCUCC	-3.31 ± 0.53	–

Sequence	self-splicing fitness (ln) (30 °C)	self-splicing fitness (ln) (37 °C)
ACGGAGCAAUAUUACGUUGC	-4.69 ± 0.73	–
GACCAGCAAUAUUACGAUAA	-1.53 ± 0.094	-1.13 ± 0.1
GUAGAGCAAUAUUACGUGGA	-3.89 ± 0.53	–
UACGAGCAAUAUUACGCGAC	-2.74 ± 0.58	–
UUCGAGCAAUAUUACGGAGC	-4.16 ± 0.6	–
CAGGAGCAAUAUUACGGCAC	-3.26 ± 0.77	-2.63 ± 1.1
UAUGAGCAAUAUUACGCAGC	-2.49 ± 0.51	–
AUUAAGCAAUAUUACGAGCC	-3.27 ± 0.53	–
CUCAAGCAAUAUUACGGCGC	-4.52 ± 0.51	–
GCGCAGCAAUAUUACGGCGG	-2.48 ± 0.13	-1.28 ± 0.15
CCGGAGCAAUAUUACGAGCA	-3.84 ± 0.76	–
UAAGAGCAAUAUUACGGUCC	-3.83 ± 1	-2.87 ± 0.74
UUAUAGCAAUAUUACGAGAC	-3.7 ± 1.1	–
GUUAAGCAAUAUUACGAACC	-0.0715 ± 0.54	-3.58 ± 0.73
UCGGAGCAAUAUUACGACCC	-1.93 ± 1.2	–
UUGUAGCAAUAUUACGCCGC	-3.87 ± 0.73	–
CAGAAGCAAUAUUACGCCUC	-2.65 ± 0.65	–
GCAGAGCAAUAUUACGGGGC	–	-3.04 ± 0.74
UAUUAGCAAUAUUACGGACC	–	-1.18 ± 0.57
GGUUAGCAAUAUUACGACCC	–	-1.24 ± 0.52
CUUCAGCAAUAUUACGAGUC	-4.26 ± 0.52	–

— the supplement of paper PMC7877785
